# Values of other authors in patent US12383619B2, “Use of glutamate modulating agents with immunotherapies to treat cancer” (Biohaven Therapeutics Ltd., priority 2016, dated 2025).
# At least one compound was matched to its structure with a doubt left.
# Test system: advanced (unresectable or metastatic) melanoma
# Conditions: 1000 mg/m2 every 3 weeks, cited from earlier work
compound,measurement,setting,value
CN(C)/N=N/c1[nH]cnc1C(N)=O [dacarbazine],Complete response (CR) (number),n = 208,2
same,Objective response (number),n = 208,29
same,Overall survival: Events,n = 208,96
same,"Overall survival: Events, figure in parentheses",n = 208,(46.2)
same,Partial response (PR) (number),n = 208,27
same,Progression-free survival: Events,n = 208,163
same,"Progression-free survival: Events, figure in parentheses",n = 208,(78.4)
same,Stable disease (SD) (number),n = 208,46
same,Complete response (CR) (%),,(1.0%)
same,Median duration of response,,6.0 Months
same,Median time to response,,2.1 Months
same,Objective response (%),,(13.9%)
same,Overall survival: Median,,10.8
same,Overall survival: Rate At 6 months,,71.8
same,Overall survival: Rate At 12 months,,42.1
same,Partial response (PR) (%),,(13.0%)
same,Progression-free survival: Median,,2.2
same,Progression-free survival: Rate At 6 months,,18.5
same,Stable disease (SD) (%),,(22.1%)
